Values from PubChem BioAssay AID1259405 (NCATS, 2018).
Shown is one part, drawn at random, of about 50,000 deposited reagents. About 4,000 of all reagents (8%) were called active. 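Mouse siRNA library applied to hamster cells; one well for each siRNA.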 Entries without a mark were called inactive. Reagents against one gene are numbered here.

Assay: 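Knock-downs that lift recombinant protein yield in hamster ovary cells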 (primary screen)
System: Chinese hamster CHO-K1 ovary cells with stable secreted eGFP expression
Reagents: single siRNA against mouse genes, 0.8 pmol siRNA per well (2 µl of 400 nM stock)
Duration: 3 days
Measured: 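Per-well intracellular GFP measured by laser scanning cytometry, plus viability from ATP luminescence, each relative to plate median of non-targeting control wells, in %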
Reading the numbers: GFP, % of control: higher = more GFP per well, higher productivity; viability (ATP), % of control: higher = more viable cells (more ATP)
Call rule: 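Called active when intracellular GFP, relative to negative control, is at or above 120%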

gene knocked down,reagent no.,"GFP, % of control","viability (ATP), % of control"
Psmc6,1,51.4,18.5
Psmc6,2,51.7,30.3
Psmc6,3,48.2,24
Csn2,1,78.9,72.8
Csn2,2,29.5,51.9
Csn2,3,88.8,120
Or8k24,1,66.9,72.2
Or8k24,2,103,78.9
Or8k24,3,61.3,97.6
Tmem9,1,68.9,87.1
Tmem9,2,125 (active),126
Tmem9,3,140 (active),142
Parp11,1,87.4,123
Parp11,2,75.2,99
Parp11,3,85.5,120
Fgf8,1,145 (active),109
Fgf8,2,35.2,43.1
Fgf8,3,95.1,64.8
Gramd1c,1,83.1,80.8
Gramd1c,2,51.2,72.6
Gramd1c,3,109,109
Rex1bd,1,80.4,62.4
Rex1bd,2,69.3,50.1
Rex1bd,3,79.7,61.9
Rbp7,1,79.1,61.8
Rbp7,2,74.5,84.3
Rbp7,3,78.1,81.7
Nufip2,1,78.9,79.2
Nufip2,2,63.2,80.4
Nufip2,3,57.5,59
Fgf2os,1,73.1,67.4
Fgf2os,2,75.5,69.3
Fgf2os,3,52.8,60.8
Zmym1,1,82.5,72.7
Zmym1,2,108,62.4
Zmym1,3,72.1,98.2
Wdpcp,1,45.6,105
Wdpcp,2,64.5,102
Wdpcp,3,74.2,74.2
Magi2,1,66.7,71.3
Magi2,2,71.2,67.9
Magi2,3,74.4,93.8
Edrf1,1,95.7,29.2
Edrf1,2,154 (active),90.5
Edrf1,3,110,117
Gata1,1,40.8,53.9
Gata1,2,50.1,55.9
Stard8,1,100,55
Stard8,2,80.9,72.8
Stard8,3,93,85.1
Tlr7,1,71.7,41.9
Tlr7,2,65.7,40.7
Tlr7,3,41.6,35.1
Or4c35,1,69.2,39.1
Or4c35,2,96.9,66.8
Or4c35,3,53,90.3
Chrm2,1,45.2,20.8
Chrm2,2,58.9,60
Chrm2,3,60,59.6
Mbtps1,1,75.9,86.7
Mbtps1,2,140 (active),101
Mbtps1,3,48.4,60.1
Srp14,1,64.3,85.9
Srp14,2,102,82.2
Paxx,1,30.7,32.8
Paxx,2,80.5,78.6
Paxx,3,92.5,110
Actl6b,1,130 (active),92.5
Actl6b,2,75.8,84.9
Or5p60,1,88.8,42.7
Or5p60,2,43.1,70.2
Or5p60,3,132 (active),79.9
Serhl,1,50.4,27.3
Serhl,2,107,91.2
Serhl,3,51.8,68.8
Epsti1,1,54.9,52.2
Epsti1,2,43.1,44.5
Epsti1,3,52,105
Rubcnl,1,52.5,84.4
Rubcnl,2,95.7,87.5
Rubcnl,3,106,130
Pafah2,1,73.7,72.6
Pafah2,2,103,71.8
Cbfa2t2,1,115,152
Cbfa2t2,2,39,47.2
Cbfa2t2,3,72.6,82.4

7 entries from above, reformatted.
gene knocked down | reagent no. | GFP, % of control | viability (ATP), % of control
Psmc6 | 2 | 51.7 | 30.3
Psmc6 | 3 | 48.2 | 24
Csn2 | 1 | 78.9 | 72.8
Csn2 | 2 | 29.5 | 51.9
Csn2 | 3 | 88.8 | 120
Or8k24 | 1 | 66.9 | 72.2
Or8k24 | 2 | 103 | 78.9
